Results taken from paper PMC5345878.
Results are given in words; binding and its absence hold for the method and conditions named. In cells and extracts the contact can be indirect. Here binding means that the protein was enriched with, or labelled near, the bait; the list need not be complete. Values belong to the binder of their own block, whether it stands above or below them.

Target: Histone variant H2A.B.3 (mouse)
Assay: affinity purification with mass spectrometry; formaldehyde crosslinked mononucleosomes (MNase I) from testes of 28-30 day old mice; anti-H2A.B.3 or anti-H2A.Z antibody covalently bound to Dynabeads, 4 hours at 4°C; washes with 1 M NaCl; LC-MS/MS; two replicates each; proteins common to H2A.Z and H2A.B.3 removed

- binding: binds
B1: Tudor domain-containing protein 1 (protein, UniProt Q99MV1 1-1172)
chain: MMPRNNLEASTCKMAEPFNFEKKESKPPPQDPLRSPVAQHNHPTFRLKSPENGNTKNNFLLCEQNKQYLASQEDSSVVSSNPAVVNGEVGGSKGDRKPPPTGNPVSPLSLGNSSPPNQVKTKPSSNVTPEKSKKSHKLFENALSVNNPALFNSLGPPLRSTTCHRCGLFGSLRCSQCKQTYYCSTACQRRDWSSHSTICRPVQQSLNKLEDNKSPFETKAIEVKSEVDCPPGVTKEITAGAERVMFSDLRSLQLKKTMEIKGTVTEFKHPSNFYIQLYSSEVLENMNQLSTSLKETYANVVPEDGYLPVKGEVCVAKYTVDQTWNRAIVQAVDVLQRKAHVLYIDYGNEEMIPIDSVHPLSRGLDLFPPSAIKCCVSGVIPTAGEWSEGCVAAVKALLFEQFCSVKVMDILEEEVLTCAVDLVLQSSGKQLDHVLVEMGYGVKPGEQSSTEQSVDHSALEDVGRVTVESKIVTDRNALIPKVLTLNVGDEFCGVVAHIQTPEDFFCQQLQSGHKLAELQESLSEYCGHVIPRSDFYPTIGDVCCAQFSEDDQWYRASVLAYASEESVLVGYVDYGNFEILSLKRLCPIIPKLLDLPMQALNCVLAGVKPSLGIWTPEAVCVMKEMVQNRMVTVRVVGMLGTRALVELIDKSVAPHVSASKALIDSGFAIKEKDVADKGSSMHTASVPLAIEGPAEALEWTWVEFTVDETVDVVVCMMYSPGEFYCHFLKDDALEKLDDLNQSLADYCAQKPPNGFKAEIGRPCCAFFSGDGNWYRALVKEILPSGNVKVHFVDYGNVEEVTTDQLQAILPQFLLLPFQGMQCWLVDIQPPNKHWTKEATARFQACVVGLKLQARVVEITANGVGVELTDLSTPYPKIISDVLIREQLVLRCGSPQDSLMSRPANQHKQIDSHRVQASPSAEQWKTMELPVNKTIAANVLEIISPALFYAIPSEMSENQEKLCVLAAELLEHCNAQKGQPAYRPRTGDACCAKYTNDDFWYRAIVLETSESDVKVLYADYGNIETLPLSRVQPIPASHLELPFQIIRCSLEGPMELNGSCSQLVMELLRNAMLNQSVVLSVKAISKNVHAVSVEKCSENGMINIAENLVMCGLAENLTSKRKSASTKEIPHSRDCCCTELQKQIEKHEQILLFLLNNPTNQSKFTEMKKLLRS

- binding: binds
B2: U5 small nuclear ribonucleoprotein 40 kDa (protein, UniProt Q6PE01 1-358)
chain: MIEQQKRKGPELPLVPVKRPRHELLLGAAGAGPGAGPQQATPGALLQAGPPRCSSLQAPIMLLSGHEGEVYCCKFHPNGSTLASAGFDRLILLWNVYGDCDNYATLKGHSGAVMELHYNTDGSMLFSASTDKTVAVWDSETGERVKRLKGHTSFVNSCYPARRGPQLVCTGSDDGTVKLWDIRKKAAVQTFQNTYQVLAVTFNDTSDQIISGGIDNDIKVWDLRQNKLTYTMRGHADSVTGLSLSSEGSYLLSNAMDNTVRVWDVRPFAPKERCVKIFQGNVHNFEKNLLRCSWSPDGSKIAAGSADRFVYVWDTTSRRVLYKLPGHAGSINEVAFHPDEPIILSASSDKRLYMGEIQ

- binding: binds
B3: Cold-inducible RNA-binding protein (protein, UniProt P60824 1-172)
chain: MASDEGKLFVGGLSFDTNEQALEQVFSKYGQISEVVVVKDRETQRSRGFGFVTFENIDDAKDAMMAMNGKSVDGRQIRVDQAGKSSDNRSRGYRGGSAGGRGFFRGGRSRGRGFSRGGGDRGYGGGRFESRSGGYGGSRDYYASRSQGGSYGYRSSGGSYRDSYDSYATHNE

- binding: binds
B4: Pre-mRNA-splicing factor 38A (protein, UniProt Q4FK66 1-312)
chain: MANRTVKDAHSIHGTNPQYLVEKIIRTRIYESKYWKEECFGLTAELVVDKAMELKFVGGVYGGNIKPTPFLCLTLKMLQIQPEKDIIVEFIKNEDFKYVRMLGALYMRLTGTAIDCYKYLEPLYNDYRKIKSQNRNGEFVLMHVDEFIYELLHSERVCDIILPRLQKRYVLEEAEQLEPRVSALEEDMDDVESSEEEEEEDEKLERVPSPDHRRRSYRDLDKPRRSPALRYRRSRSRSPRRRSRSPKRRSPSPRRERHRSKSPRRHRSRSRDRRHRSRSKSPGHHRSHRHRSHSKSPERSKKSHKKSRRGNE

- binding: binds
B5: Splicing factor 3B subunit 1 SF3b155 (protein, UniProt Q99NB9 1-1304)
chain: MAKIAKTHEDIEAQIREIQGKKAALDEAQGVGLDSTGYYDQEIYGGSDSRFAGYVTSIAATELEDDDDDYSSSTSLLGQKKPGYHAPVALLNDIPQSTEQYDPFAEHRPPKIADREDEYKKHRRTMIISPERLDPFADGGKTPDPKMNARTYMDVMREQHLTKEEREIRQQLAEKAKAGELKVVNGAAASQPPSKRKRRWDQTADQTPGATPKKLSSWDQAETPGHTPSLRWDETPGRAKGSETPGATPGSKIWDPTPSHTPAGAATPGRGDTPGHATPGHGGATSSARKNRWDETPKTERDTPGHGSGWAETPRTDRGGDSIGETPTPGASKRKSRWDETPASQMGGSTPVLTPGKTPIGTPAMNMATPTPGHIMSMTPEQLQAWRWEREIDERNRPLSDEELDAMFPEGYKVLPPPAGYVPIRTPARKLTATPTPLGGMTGFHMQTEDRTMKSVNDQPSGNLPFLKPDDIQYFDKLLVDVDESTLSPEEQKERKIMKLLLKIKNGTPPMRKAALRQITDKAREFGAGPLFNQILPLLMSPTLEDQERHLLVKVIDRILYKLDDLVRPYVHKILVVIEPLLIDEDYYARVEGREIISNLAKAAGLATMISTMRPDIDNMDEYVRNTTARAFAVVASALGIPSLLPFLKAVCKSKKSWQARHTGIKIVQQIAILMGCAILPHLRSLVEIIEHGLVDEQQKVRTISALAIAALAEAATPYGIESFDSVLKPLWKGIRQHRGKGLAAFLKAIGYLIPLMDAEYANYYTREVMLILIREFQSPDEEMKKIVLKVVKQCCGTDGVEANYIKTEILPPFFKHFWQHRMALDRRNYRQLVDTTVELANKVGAAEIISRIVDDLKDEAEQYRKMVMETIEKIMGNLGAADIDHKLEEQLIDGILYAFQEQTTEDSVMLNGFGTVVNALGKRVKPYLPQICGTVLWRLNNKSAKVRQQAADLISRTAVVMKTCQEEKLMGHLGVVLYEYLGEEYPEVLGSILGALKAIVNVIGMHKMTPPIKDLLPRLTPILKNRHEKVQENCIDLVGRIADRGAEYVSAREWMRICFELLELLKAHKKAIRRATVNTFGYIAKAIGPHDVLATLLNNLKVQERQNRVCTTVAIAIVAETCSPFTVLPALMNEYRVPELNVQNGVLKSLSFLFEYIGEMGKDYIYAVTPLLEDALMDRDLVHRQTASAVVQHMSLGVYGFGCEDSLNHLLNYVWPNVFETSPHVIQAVMGALEGLRVAIGPCRMLQYCLQGLFHPARKVRDVYWKIYNSIYIGSQDALIAHYPRIYNDDKNTYIRYDLDYIL

- binding: binds
B6: ATP-dependent RNA helicase DDX42 (protein, UniProt Q810A7 1-929)
chain: MNWNKGGPGTKRGFGFGGFAISAGKKEEAKLPQQSHSAFGAASSSSGFGKSAPPQLPSFYKIGSKRANFDEENAYFEDEEEDSSNVDLPYIPAENSPTRQQFHSKPADSDSDDDPLEAFMAEVEDQAARDMKRLEEKDKERKNVKGIRDDIEEEDDQEAYFRYMAENPTAGVVQEEEEDNLEYDSDGNPIAPSKKIIDPLPPIDHSEIDYPPFEKNFYNEHEEITNLTPQQLIDLRHKLNLRVSGAAPPRPGSSFAHFGFDEQLMHQIRKSEYTQPTPIQCQGVPVALSGRDMIGIAKTGSGKTAAFIWPMLIHIMDQKELEPGDGPIAVIVCPTRELCQQIHAECKRFGKAYNLRSVAVYGGGSMWEQAKALQEGAEIVVCTPGRLIDHVKKKATNLQRVSYLVFDEADRMFDMGFEYQVRSIASHVRPDRQTLLFSATFRKKIEKLARDILIDPIRVVQGDIGEANEDVTQIVEILHSGPSKWNWLTRRLVEFTSSGSVLLFVTKKANAEELASNLKQEGHNLGLLHGDMDQSERNKVISDFKKKDIPVLVATDVAARGLDIPSIKTVINYDVARDIDTHTHRIGRTGRAGEKGVAYTLLTPKDSNFAGDLVRNLEGANQHVSKELLDLAMQNAWFRKSRFKGGKGKKLNIGGGGLGYRERPGLGSENSDRGNNNNVMSNYEAYKPSTGAMGDRLTAMKAAFQSQYKSHFVAASLSNQKAGTSSAGASGWTSAGSLNSVPTNSAQQGHNSPDNPMTSSTKNIPGFNNSGNISSAPVTYPSIGAQGVNNTASGNNSREGIGGGNGKRERYTENRGGSRHSHGDGGNRHGDGGRHGDGYRYPESGSRHTDGHRHGETRHGGSAGRHGESRGANDGRNGESRKEGFNRENKMDPKVDSSRMDKVDSKTDKTPDGFAVPEPPKRKKSRWDS

- binding: binds
B7: Deleted in azoospermia-like (protein, UniProt Q64368 1-298)
chain: MSATTSEAPNSAVSREASTQSSSATTSQGYVLPEGKIMPNTVFVGGIDVRMDETEIRSFFARYGSVKEVKIITDRTGVSKGYGFVSFYNDVDVQKIVESQINFHGKKLKLGPAIRKQNLCTYHVQPRPLIFNPPPPPQFQSVWSSPNAETYMQPPTMMNPITQYVQAYPPYPSSPVQVITGYQLPVYNYQMPPQWPAGEQRSYVIPPAYTTVNYHCSEVDPGADILPNECSVHDAAPASGNGPQKKSVDRSIQTVVSCLFNPENRLRNSLVTQDDYFKDKRVHHFRRSRAVLKSDHLC

- binding: binds
B8: Cleavage stimulation factor subunit 3 (protein, UniProt Q99LI7 1-717)
chain: MSGDAAAEQAAEYVPEKVKKAEKKLEENPYDLDAWSILIREAQNQPIDKARKTYERLVAQFPSSGRFWKLYIEAEIKAKNYDKVEKLFQRCLMKVLHIDLWKCYLSYVRETKGKLPSYKEKMAQAYDFALDKIGMEIMSYQIWVDYINFLKGVEAVGSYAENQRITAVRRVYQRGCVNPMINIEQLWRDYNKYEEGINIHLAKKMIEDRSRDYMNARRVAKEYETVMKGLDRNAPSVPPQNTPQEAQQVDMWKKYIQWEKSNPLRTEDQTLITKRVMFAYEQCLLVLGHHPDIWYEAAQYLEQSSKLLAEKGDMNNAKLFSDEAANIYERAISTLLKKNMLLYFAYADYEESRMKYEKVHSIYNRLLAIEDIDPTLVYIQYMKFARRAEGIKSGRMIFKKAREDARTRHHVYVTAALMEYYCSKDKSVAFKIFELGLKKYGDIPEYVLAYIDYLSHLNEDNNTRVLFERVLTSGSLPPEKSGEIWARFLAFESNIGDLASILKVEKRRFTAFREEYEGKETALLVDRYKFMDLYPCSASELKALGYKDVSRAKLAAIIPDPVVAPSIVPVLKDEVDRKPEYPKPDTQQMIPFQPRHLAPPGLHPVPGGVFPVPPAAVVLMKLLPPPICFQGPFVQVDELMEIFRRCKIPNTVEEAVRIITGGAPELAVEGNGPVESSAVLTKAVKRPNEDSDEDEEKGAVVPPVHDIYRARQQKRIR
